Reference: PMC4638040
No constants are given. Whether binding was seen depends on the method and setting. Some results given as binding are weak or reduced against the parent protein; the word gives no strength. For part of these data: Tags and fused reporters may be left off the sequences shown. Each block holds one binder with its values, some of them ahead of it.

Chains of the proteins cited; added tags and fusions are not shown. Lines headed by an entry give the natural chain unless they say otherwise; changes in a name come on top.
UniProt Q9UNE7: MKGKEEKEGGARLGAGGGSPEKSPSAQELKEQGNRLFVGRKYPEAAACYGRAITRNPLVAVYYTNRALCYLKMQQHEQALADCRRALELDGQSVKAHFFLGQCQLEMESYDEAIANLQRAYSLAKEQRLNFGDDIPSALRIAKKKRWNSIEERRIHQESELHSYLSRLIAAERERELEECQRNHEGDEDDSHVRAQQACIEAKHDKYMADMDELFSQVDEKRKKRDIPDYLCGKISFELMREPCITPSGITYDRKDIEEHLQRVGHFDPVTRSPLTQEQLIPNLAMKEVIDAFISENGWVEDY

Legend:
[1] = biological target: Carboxy-terminus of Hsc70-interacting protein (CHIP), His-tagged, wild type (human) (UniProt Q9UNE7); experiment: ELISA; His-CHIP wt or K30A (100 ng) coated on microtitre wells; titration of GST-IRF-1 in the mobile phase; 25 mM HEPES pH 7.5, 50 mM KCl, 10 mM MgCl2, 5% glycerol, 0.1% Tween-20, 1 h at room temperature; both purified
[2] = biological target: Carboxy-terminus of Hsc70-interacting protein (CHIP), His-tagged, K30A mutant (human) (UniProt Q9UNE7); experiment: as above
[3] = biological target: Carboxy-terminus of Hsc70-interacting protein (CHIP), His-tagged, wild type (human) (UniProt Q9UNE7); experiment: ELISA; His-CHIP wt or K30A coated on microtitre wells; titration of biotin-tagged Hsp70 wt peptide in the mobile phase; detected using streptavidin-HRP; both purified

binding [1]: binds
binding [2]: binds
B1: GST-IRF-1 (pDEST-15-codon optimized IRF-1) (protein, UniProt P10914 1-325)
chain: MPITRMRMRPWLEMQINSNQIPGLIWINKEEMIFQIPWKHAAKHGWDINKDACLFRSWAIHTGRYKAGEKEPDPKTWKANFRCAMNSLPDIEEVKDQSRNKGSSAVRVYRMLPPLTKNQRKERKSKSSRDAKSKAKRKSCGDSSPDTFSDGLSSSTLPDDHSSYTVPGYMQDLEVEQALTPALSPCAVSSTLPDWHIPVEVVPDSTSDLYNFQVSPMPSTSEATTDEDEEGKLPEDIMKLLEQSEWQPTNVDGKGYLLNEPGVQPTSVYGDFSCKEEPEIDSPGGDIGLSLQRVFTDLKNMDATWLDSLLTPVRLPSIQAIPCAP

binding [3]: binds
Binder: SGSGGPTIEEVD (biotin at the N terminus) [Hsp70 C-terminal peptide GPTIEEVD (residues 634-641), biotin-SGSG at the N terminus]
